This assay has as its target apoptosis-associated speck-like protein containing CARD (ASC) (human (endogenous in HBECs)) (UniProt Q9ULZ3). Nature of the assay: co-IP.

Chains of the proteins cited; added tags and fusions are not shown.
UniProt Q9ULZ3: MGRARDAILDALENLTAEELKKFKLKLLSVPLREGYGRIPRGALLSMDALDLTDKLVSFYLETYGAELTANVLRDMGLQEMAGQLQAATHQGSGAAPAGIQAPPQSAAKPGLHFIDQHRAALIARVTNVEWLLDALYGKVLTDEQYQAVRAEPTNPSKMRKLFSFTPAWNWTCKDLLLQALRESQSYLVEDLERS

These are yes or no findings as the source states them, for the method shown. In cells and extracts the contact can be indirect. Some results given as binding are weak or reduced against the parent protein; the word gives no strength.

B1: melanoma differentiation-associated protein 5 (MDA5) (protein, UniProt Q9BYX4 1-1025)
chain: MSNGYSTDENFRYLISCFRARVKMYIQVEPVLDYLTFLPAEVKEQIQRTVATSGNMQAVELLLSTLEKGVWHLGWTREFVEALRRTGSPLAARYMNPELTDLPSPSFENAHDEYLQLLNLLQPTLVDKLLVRDVLDKCMEEELLTIEDRNRIAAAENNGNESGVRELLKRIVQKENWFSAFLNVLRQTGNNELVQELTGSDCSESNAEIENLSQVDGPQVEEQLLSTTVQPNLEKEVWGMENNSSESSFADSSVVSESDTSLAEGSVSCLDESLGHNSNMGSDSGTMGSDSDEENVAARASPEPELQLRPYQMEVAQPALEGKNIIICLPTGSGKTRVAVYIAKDHLDKKKKASEPGKVIVLVNKVLLVEQLFRKEFQPFLKKWYRVIGLSGDTQLKISFPEVVKSCDIIISTAQILENSLLNLENGEDAGVQLSDFSLIIIDECHHTNKEAVYNNIMRHYLMQKLKNNRLKKENKPVIPLPQILGLTASPGVGGATKQAKAEEHILKLCANLDAFTIKTVKENLDQLKNQIQEPCKKFAIADATREDPFKEKLLEIMTRIQTYCQMSPMSDFGTQPYEQWAIQMEKKAAKEGNRKERVCAEHLRKYNEALQINDTIRMIDAYTHLETFYNEEKDKKFAVIEDDSDEGGDDEYCDGDEDEDDLKKPLKLDETDRFLMTLFFENNKMLKRLAENPEYENEKLTKLRNTIMEQYTRTEESARGIIFTKTRQSAYALSQWITENEKFAEVGVKAHHLIGAGHSSEFKPMTQNEQKEVISKFRTGKINLLIATTVAEEGLDIKECNIVIRYGLVTNEIAMVQARGRARADESTYVLVAHSGSGVIEHETVNDFREKMMYKAIHCVQNMKPEEYAHKILELQMQSIMEKKMKTKRNIAKHYKNNPSLITFLCKNCSVLACSGEDIHVIEKMHHVNMTPEFKELYIVRENKALQKKCADYQINGEIICKCGQAWGTMMVHKGLDLPCLKIRNFVVVFKNNSTKKQYKKWVELPITFPNLDYSECCLFSDED
Regarding B1, the binding entry is listed as “no binding”.

B2: retinoic acid-inducible gene I (RIG-I) (protein, UniProt O95786 1-925)
chain: MTTEQRRSLQAFQDYIRKTLDPTYILSYMAPWFREEEVQYIQAEKNNKGPMEAATLFLKFLLELQEEGWFRGFLDALDHAGYSGLYEAIESWDFKKIEKLEEYRLLLKRLQPEFKTRIIPTDIISDLSECLINQECEEILQICSTKGMMAGAEKLVECLLRSDKENWPKTLKLALEKERNKFSELWIVEKGIKDVETEDLEDKMETSDIQIFYQEDPECQNLSENSCPPSEVSDTNLYSPFKPRNYQLELALPAMKGKNTIICAPTGCGKTFVSLLICEHHLKKFPQGQKGKVVFFANQIPVYEQQKSVFSKYFERHGYRVTGISGATAENVPVEQIVENNDIIILTPQILVNNLKKGTIPSLSIFTLMIFDECHNTSKQHPYNMIMFNYLDQKLGGSSGPLPQVIGLTASVGVGDAKNTDEALDYICKLCASLDASVIATVKHNLEELEQVVYKPQKFFRKVESRISDKFKYIIAQLMRDTESLAKRICKDLENLSQIQNREFGTQKYEQWIVTVQKACMVFQMPDKDEESRICKALFLYTSHLRKYNDALIISEHARMKDALDYLKDFFSNVRAAGFDEIEQDLTQRFEEKLQELESVSRDPSNENPKLEDLCFILQEEYHLNPETITILFVKTRALVDALKNWIEGNPKLSFLKPGILTGRGKTNQNTGMTLPAQKCILDAFKASGDHNILIATSVADEGIDIAQCNLVILYEYVGNVIKMIQTRGRGRARGSKCFLLTSNAGVIEKEQINMYKEKMMNDSILRLQTWDEAVFREKILHIQTHEKFIRDSQEKPKPVPDKENKKLLCRKCKALACYTADVRVIEECHYTVLGDAFKECFVSRPHPKPKQFSSFEKRAKIFCARQNCSHDWGIHVKYKTFEIPVIKIESFVVEDIATGVQTLYSKWKDFHFEKIPFDPAEMSK
As to B2, the binding result was “binds”.
